# Test results: the supplement of paper PMC10032668
# By UniProt entry, the sequences of proteins in these tests, tags left out.
# EPB41L2, O43491, UniProt O43491, whole entry: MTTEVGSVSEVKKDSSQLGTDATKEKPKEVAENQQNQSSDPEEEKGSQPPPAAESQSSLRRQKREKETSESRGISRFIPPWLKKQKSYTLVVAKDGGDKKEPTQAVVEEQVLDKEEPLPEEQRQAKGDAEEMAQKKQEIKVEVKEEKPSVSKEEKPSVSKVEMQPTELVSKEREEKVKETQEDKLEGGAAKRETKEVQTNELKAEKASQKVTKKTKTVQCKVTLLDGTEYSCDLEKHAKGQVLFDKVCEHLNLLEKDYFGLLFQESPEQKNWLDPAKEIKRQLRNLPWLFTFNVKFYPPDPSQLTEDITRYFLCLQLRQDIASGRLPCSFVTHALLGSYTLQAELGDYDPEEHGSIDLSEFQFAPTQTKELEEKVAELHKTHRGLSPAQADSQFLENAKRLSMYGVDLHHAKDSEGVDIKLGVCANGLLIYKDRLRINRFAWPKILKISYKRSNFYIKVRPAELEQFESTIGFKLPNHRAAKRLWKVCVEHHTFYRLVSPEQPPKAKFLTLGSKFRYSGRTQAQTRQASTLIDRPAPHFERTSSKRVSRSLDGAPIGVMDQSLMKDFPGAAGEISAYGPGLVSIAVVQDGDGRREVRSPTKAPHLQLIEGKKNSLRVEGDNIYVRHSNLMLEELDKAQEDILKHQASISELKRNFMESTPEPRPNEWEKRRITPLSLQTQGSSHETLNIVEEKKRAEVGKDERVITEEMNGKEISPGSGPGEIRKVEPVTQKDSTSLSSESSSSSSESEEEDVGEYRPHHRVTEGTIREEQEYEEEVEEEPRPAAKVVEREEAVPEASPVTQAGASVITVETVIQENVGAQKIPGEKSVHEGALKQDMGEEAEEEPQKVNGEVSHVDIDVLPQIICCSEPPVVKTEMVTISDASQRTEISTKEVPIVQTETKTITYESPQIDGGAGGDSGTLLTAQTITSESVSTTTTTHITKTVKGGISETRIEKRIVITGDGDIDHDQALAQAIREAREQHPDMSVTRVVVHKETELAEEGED
# CAMP, P49913, UniProt P49913, whole entry: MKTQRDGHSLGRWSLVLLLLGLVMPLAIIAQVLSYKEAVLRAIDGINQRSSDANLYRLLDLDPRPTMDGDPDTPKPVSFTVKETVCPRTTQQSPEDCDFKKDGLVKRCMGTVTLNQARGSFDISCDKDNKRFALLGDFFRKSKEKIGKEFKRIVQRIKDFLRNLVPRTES
# CFDP1, Q9UEE9, UniProt Q9UEE9, whole entry: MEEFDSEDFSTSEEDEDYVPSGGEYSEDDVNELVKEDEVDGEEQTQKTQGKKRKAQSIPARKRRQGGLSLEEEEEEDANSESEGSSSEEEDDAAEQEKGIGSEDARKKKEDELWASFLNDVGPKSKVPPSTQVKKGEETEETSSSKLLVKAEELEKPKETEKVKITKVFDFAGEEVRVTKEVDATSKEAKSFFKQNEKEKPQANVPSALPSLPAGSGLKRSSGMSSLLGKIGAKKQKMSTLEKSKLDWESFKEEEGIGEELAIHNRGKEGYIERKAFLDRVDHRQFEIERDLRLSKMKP
# NCL, P19338, UniProt P19338, whole entry: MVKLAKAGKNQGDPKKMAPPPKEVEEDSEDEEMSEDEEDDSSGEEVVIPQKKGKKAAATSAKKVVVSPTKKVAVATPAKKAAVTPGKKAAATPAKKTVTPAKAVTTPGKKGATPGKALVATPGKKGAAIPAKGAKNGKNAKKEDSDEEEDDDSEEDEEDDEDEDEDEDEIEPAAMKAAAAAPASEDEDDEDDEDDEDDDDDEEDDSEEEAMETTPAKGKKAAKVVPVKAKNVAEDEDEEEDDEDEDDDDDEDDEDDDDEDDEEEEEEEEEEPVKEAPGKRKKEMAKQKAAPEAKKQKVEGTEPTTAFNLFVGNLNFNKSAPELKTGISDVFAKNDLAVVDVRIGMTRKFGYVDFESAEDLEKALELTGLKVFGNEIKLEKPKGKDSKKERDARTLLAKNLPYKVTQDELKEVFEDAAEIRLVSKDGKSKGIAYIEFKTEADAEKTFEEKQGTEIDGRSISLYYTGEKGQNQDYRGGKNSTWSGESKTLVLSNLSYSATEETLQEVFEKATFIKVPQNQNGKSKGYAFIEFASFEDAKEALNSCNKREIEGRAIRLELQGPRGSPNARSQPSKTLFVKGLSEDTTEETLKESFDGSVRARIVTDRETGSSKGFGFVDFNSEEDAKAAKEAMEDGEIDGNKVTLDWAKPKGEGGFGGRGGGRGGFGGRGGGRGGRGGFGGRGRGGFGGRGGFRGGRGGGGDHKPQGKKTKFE
# SET, Q01105, UniProt Q01105, whole entry: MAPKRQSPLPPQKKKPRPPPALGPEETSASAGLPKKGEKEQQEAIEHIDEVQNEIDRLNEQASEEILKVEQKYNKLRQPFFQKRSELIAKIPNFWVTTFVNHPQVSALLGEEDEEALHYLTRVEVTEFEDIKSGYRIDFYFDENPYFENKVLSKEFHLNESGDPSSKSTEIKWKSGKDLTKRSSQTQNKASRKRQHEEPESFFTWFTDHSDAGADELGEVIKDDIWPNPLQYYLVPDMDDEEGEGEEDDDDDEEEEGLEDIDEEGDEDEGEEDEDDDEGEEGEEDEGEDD
# SOD1, P00441, UniProt P00441, whole entry: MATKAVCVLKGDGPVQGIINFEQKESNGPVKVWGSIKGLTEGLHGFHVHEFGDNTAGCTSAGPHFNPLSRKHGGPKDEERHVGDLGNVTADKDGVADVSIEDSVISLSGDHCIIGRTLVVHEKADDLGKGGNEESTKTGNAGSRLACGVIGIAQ
# SRSF1, Q07955, UniProt Q07955, whole entry: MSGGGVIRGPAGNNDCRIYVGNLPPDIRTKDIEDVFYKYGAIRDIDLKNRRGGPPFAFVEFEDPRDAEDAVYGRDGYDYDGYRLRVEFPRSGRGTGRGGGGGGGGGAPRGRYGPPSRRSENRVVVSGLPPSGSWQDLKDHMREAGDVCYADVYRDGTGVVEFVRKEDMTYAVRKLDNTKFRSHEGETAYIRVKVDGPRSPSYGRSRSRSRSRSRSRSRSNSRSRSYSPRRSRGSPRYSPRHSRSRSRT
# The list shows a part of the results. The list holds hits alone, and they repeat only in part.
# Columns and labels:
# Assay in all cases: PRISMA enrichment of interactor (LFQ) in peptide spot vs all other peptide spots (log2 fold change); higher = stronger / more specific binding of the interactor to the peptide
# ALDH4A1, P30038 = target: ALDH4A1, P30038
# Experimental: (§1)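 PRISMA: 15-aa overlapping tiles (offset 8 aa) of 60 microproteins, plus SOS1/GLUT1 control peptides, were spot-synthesized on cellulose membranes in triplicate. Membranes were incubated with benzonase-treated HEK293T lysate, and bound proteins were identified by LC-MS/MS with LFQ. Enrichment is the log2 fold change of each protein in one spot versus all other spots. Only interactors passing the significance cutoff are listed.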
# ARL6IP4, Q66PJ3 = target: ARL6IP4, Q66PJ3
# Experimental: as §1
# CCDC77, Q9BR77 = target: CCDC77, Q9BR77
# Experimental: as §1
# CDC5L, Q99459 = target: CDC5L, Q99459
# Experimental: as §1
# CEP290, O15078 = target: CEP290, O15078
# Experimental: as §1
# DDX52, Q9Y2R4 = target: DDX52, Q9Y2R4
# Experimental: as §1
# EHD1, Q9H4M9 = target: EHD1, Q9H4M9
# Experimental: as §1
# ELOA, Q14241 = target: ELOA, Q14241
# Experimental: as §1
# EPB41L2, O43491 = target: EPB41L2, O43491
# Experimental: as §1
# FIP1L1, Q6UN15 = target: FIP1L1, Q6UN15
# Experimental: as §1
# HACD2, Q6Y1H2 = target: HACD2, Q6Y1H2
# Experimental: as §1
# HNRNPD, Q14103 = target: HNRNPD, Q14103
# Experimental: as §1
# HSPA5, P11021 = target: HSPA5, P11021
# Experimental: as §1
# NAA35, Q5VZE5 = target: NAA35, Q5VZE5
# Experimental: as §1
# NUP107, P57740 = target: NUP107, P57740
# Experimental: as §1
# PFKP, Q01813 = target: PFKP, Q01813
# Experimental: as §1
# PGRMC1, O00264 = target: PGRMC1, O00264
# Experimental: as §1
# POLD2, P49005 = target: POLD2, P49005
# Experimental: as §1
# PPAN-P2RY11 = target: PPAN-P2RY11
# Experimental: as §1
# RBM10 = target: RBM10
# Experimental: as §1
# RBM26, Q5T8P6 = target: RBM26, Q5T8P6
# Experimental: as §1
# RBM6, P78332 = target: RBM6, P78332
# Experimental: as §1
# SNU13, P55769 = target: SNU13, P55769
# Experimental: as §1
# TAB2, Q9NYJ8 = target: TAB2, Q9NYJ8
# Experimental: as §1
# TRIP13, Q15645 = target: TRIP13, Q15645
# Experimental: as §1
# VIRMA, Q69YN4 = target: VIRMA, Q69YN4
# Experimental: as §1
# WDR55, Q9H6Y2 = target: WDR55, Q9H6Y2
# Experimental: as §1
# ANP32A, P39687 = target: ANP32A, P39687
# Experimental: as §1
# APRT, P07741 = target: APRT, P07741
# Experimental: as §1
# C11orf58, O00193 = target: C11orf58, O00193
# Experimental: as §1
# C1QBP, Q07021 = target: C1QBP, Q07021
# Experimental: as §1
# CAMP, P49913 = target: CAMP, P49913
# Experimental: as §1
# CDKN2AIP, Q9NXV6 = target: CDKN2AIP, Q9NXV6
# Experimental: as §1
# CFDP1, Q9UEE9 = target: CFDP1, Q9UEE9
# Experimental: as §1
# DDX56, Q9NY93 = target: DDX56, Q9NY93
# Experimental: as §1
# FAM98B, Q52LJ0 = target: FAM98B, Q52LJ0
# Experimental: as §1
# GOLIM4, O00461 = target: GOLIM4, O00461
# Experimental: as §1
# HDGFL2, Q7Z4V5 = target: HDGFL2, Q7Z4V5
# Experimental: as §1
# LSM14A, Q8ND56 = target: LSM14A, Q8ND56
# Experimental: as §1
# MRPL27, Q9P0M9 = target: MRPL27, Q9P0M9
# Experimental: as §1
# NCL, P19338 = target: NCL, P19338
# Experimental: as §1
# NME4, O00746 = target: NME4, O00746
# Experimental: as §1
# [1] = substrate: NOSIP, Q9Y314
# Experimental: as §1
# PPP1R14A, Q96A00 = target: PPP1R14A, Q96A00
# Experimental: as §1
# PYCR3, Q53H96 = target: PYCR3, Q53H96
# Experimental: as §1
# SBNO1, A3KN83 = target: SBNO1, A3KN83
# Experimental: as §1
# SET, Q01105 = target: SET, Q01105
# Experimental: as §1
# SOD1, P00441 = target: SOD1, P00441
# Experimental: as §1
# SRSF1, Q07955 = target: SRSF1, Q07955
# Experimental: as §1
# SRSF2, Q01130 = target: SRSF2, Q01130
# Experimental: as §1
# SRSF5, Q13243 = target: SRSF5, Q13243
# Experimental: as §1
# SRSF6, Q13247 = target: SRSF6, Q13247
# Experimental: as §1
# SRSF7, Q16629 = target: SRSF7, Q16629
# Experimental: as §1
binder,measurement,setting,value
YPSVLENRARLLPLC [LINC01128],PRISMA enrichment of interactor (log2),"ALDH4A1, P30038",6.55
same,PRISMA enrichment of interactor (log2),"ARL6IP4, Q66PJ3",5.4
same,PRISMA enrichment of interactor (log2),"CCDC77, Q9BR77",5.23
same,PRISMA enrichment of interactor (log2),"CDC5L, Q99459",6.04
same,PRISMA enrichment of interactor (log2),"CEP290, O15078",5.2
same,PRISMA enrichment of interactor (log2),"DDX52, Q9Y2R4",5.1
same,PRISMA enrichment of interactor (log2),"EHD1, Q9H4M9",5.36
same,PRISMA enrichment of interactor (log2),"ELOA, Q14241",4.23
same,PRISMA enrichment of interactor (log2),"EPB41L2, O43491",4.58
same,PRISMA enrichment of interactor (log2),"FIP1L1, Q6UN15",6.95
same,PRISMA enrichment of interactor (log2),"HACD2, Q6Y1H2",5.34
same,PRISMA enrichment of interactor (log2),"HNRNPD, Q14103",6.51
same,PRISMA enrichment of interactor (log2),"HSPA5, P11021",6.24
same,PRISMA enrichment of interactor (log2),"NAA35, Q5VZE5",4.81
same,PRISMA enrichment of interactor (log2),"NUP107, P57740",6.76
same,PRISMA enrichment of interactor (log2),"PFKP, Q01813",5.41
same,PRISMA enrichment of interactor (log2),"PGRMC1, O00264",4.99
same,PRISMA enrichment of interactor (log2),"POLD2, P49005",4.03
same,PRISMA enrichment of interactor (log2),PPAN-P2RY11,4.66
same,PRISMA enrichment of interactor (log2),RBM10,4.84
same,PRISMA enrichment of interactor (log2),"RBM26, Q5T8P6",5.62
same,PRISMA enrichment of interactor (log2),"RBM6, P78332",4.51
same,PRISMA enrichment of interactor (log2),"SNU13, P55769",6.12
same,PRISMA enrichment of interactor (log2),"TAB2, Q9NYJ8",6.56
same,PRISMA enrichment of interactor (log2),"TRIP13, Q15645",4.5
same,PRISMA enrichment of interactor (log2),"VIRMA, Q69YN4",5.36
same,PRISMA enrichment of interactor (log2),"WDR55, Q9H6Y2",5.61
EGRRRAASKDVPRDP [PVT1],PRISMA enrichment of interactor (log2),"ALDH4A1, P30038",5.42
same,PRISMA enrichment of interactor (log2),"ANP32A, P39687",7.77
same,PRISMA enrichment of interactor (log2),"APRT, P07741",4.61
same,PRISMA enrichment of interactor (log2),"C11orf58, O00193",4.46
same,PRISMA enrichment of interactor (log2),"C1QBP, Q07021",7.12
same,PRISMA enrichment of interactor (log2),"CAMP, P49913",6.81
same,PRISMA enrichment of interactor (log2),"CDKN2AIP, Q9NXV6",7.05
same,PRISMA enrichment of interactor (log2),"CFDP1, Q9UEE9",4.43
same,PRISMA enrichment of interactor (log2),"DDX56, Q9NY93",5.33
same,PRISMA enrichment of interactor (log2),"FAM98B, Q52LJ0",9.17
same,PRISMA enrichment of interactor (log2),"GOLIM4, O00461",4.56
same,PRISMA enrichment of interactor (log2),"HDGFL2, Q7Z4V5",5.25
same,PRISMA enrichment of interactor (log2),"LSM14A, Q8ND56",5.01
same,PRISMA enrichment of interactor (log2),"MRPL27, Q9P0M9",7.12
same,PRISMA enrichment of interactor (log2),"NCL, P19338",5.73
same,PRISMA enrichment of interactor (log2),"NME4, O00746",5.19
same,PRISMA enrichment of interactor (log2),[1],5.12
same,PRISMA enrichment of interactor (log2),"PPP1R14A, Q96A00",6.11
same,PRISMA enrichment of interactor (log2),"PYCR3, Q53H96",7.74
same,PRISMA enrichment of interactor (log2),"SBNO1, A3KN83",4.2
same,PRISMA enrichment of interactor (log2),"SET, Q01105",7.63
same,PRISMA enrichment of interactor (log2),"SOD1, P00441",6.83
same,PRISMA enrichment of interactor (log2),"SRSF1, Q07955",6.24
same,PRISMA enrichment of interactor (log2),"SRSF2, Q01130",6.82
same,PRISMA enrichment of interactor (log2),"SRSF5, Q13243",5.42
same,PRISMA enrichment of interactor (log2),"SRSF6, Q13247",5.67
same,PRISMA enrichment of interactor (log2),"SRSF7, Q16629",6.66
